Measured values published in PubChem BioAssay (EPA / NIEHS).
Inconclusive means that the source gave no clear call. Such entries were picked first, then a sample of the others. Potencies beside an inconclusive call are fits to weak or partial responses and may not hold up. Calls of active or inactive are those of the source. How the source made its calls: active means hit-call score of the fitted dose curve at least 0.9, where 1 is the maximum; inconclusive means response in the unintended direction; inactive means score below 0.9.

Test: STM_H9_OrnCyssISnorm_ratio: Stemina devTOX quickPredict H9 human embryonic stem cell (hESC)-based Assay for Ornithine (ORN):Cystine (CYSS) Ratio (AID 2283714)
Procedure: STM_H9_secretome utilizes undifferentiated H9 cells to measure relative changes in two metabolites, ornithine (ORN) and cystine (CYSS) in the secretome, targeting a critical drop in the ORN/CYSS ratio as a biomarker for developmental toxicity.STM_H9_OrnCyssISnorm_ratio is one of 10 components calculated in the STM_H9_secretome assay. It is the ratio value of OrnISnorm_perc to CyssISnorm_perc.Data from the assay component STM_H9_OrnCyssISnorm_ratio was analyzed at the assay endpoint STM_H9_OrnCyssISnorm_ratio in the positive analysis fitting direction relative to DMSO as the negative control and baseline of activity. Using a type of binding reporter, gain or loss-of-signal activity can be used to understand relative metabolite change.
H9 hESCs maintained in a pluripotent state were exposed to test compound for 72h with chemical replenishment with media replacement every 24h. Cell-conditioned media from the final 24-h treatment period was collected for analysis of the targeted biomarker, and cell viability of the corresponding cell layer was assessed. The chemical library was tested in blinded fashion. Each test plate included 1uM Methotrexate (MTX; Selleck Chemicals, Houston, Texas) as a positive reference, 5 nM MTX as a negative reference, 0.1% DMSO as the neutral (vehicle) control, and sample-level media blanks.H9 cell-conditioned media from the final 24-h treatment period was collected for analysis of the targeted biomarker and cell viability was measured from the corresponding cell layer. Cell viability was measured using the CellTiter-Fluor assay (Promega, Madison, Wisconsin) based on proteolytic cleavage of a substrate to fluorescent signal proportional to the number of living cells. The cell viability Relative Fluorescence Unit (RFU) was background corrected and normalized to mean RFU of the neutral control (0.1% DMSO). The collected H9-cell-conditioned media samples were processed for targeted biomarker analysis as described (Palmer et al., 2013). Briefly, spent media samples were deproteinized (40% acetonitrile) and processed for UPLC-HRMS. Data acquisition was performed using 4 separate UPLC-HRMS systems, consisting of an Agilent 1290 Infinity LC system (Agilent Technologies) interfaced with an Agilent high-resolution mass spectrometer (models G6520A, G6520B, G6530A, and G6224A). A Waters Acquity UPLC BEH Amide column (2.1mm x 50mm, 1.7lm particle size; Waters, Milford, Massachusetts) maintained at 40C was applied for separation of metabolites using a 6.5min solvent gradient with 0.1% formic acid in water and 0.1% formic acid in acetonitrile (1.0ml/min flow rate). Data were acquired using MassHunter Acquisition software (version B 04.00, Agilent Technologies). The extracted ion chromatogram (EIC) areas for ORN, CYSS, and their respective spike-in C13-standards were determined using the Agilent MassHunter Quantitative Analysis software, version B.05.00 or newer (Agilent Technologies), and data were normalized as described in Palmer et al. (2017).

Row | Compound | AC50 | outcome
1 | CCCCc1ccc2c(n1)[C@@H](c1ccc(OC)cc1C[C@H](C)C(=O)O)[C@H](C(=O)O)[C@H]2c1ccc2c(c1)OCO2 | inconclusive: 0.0006 µM | –
2 | CC(C)=CCCC(C)=CC=O | inconclusive: 5.29 µM | –
3 | CC1(C)[C@@H]2CC[C@@]1(C)C(=O)C2 | inconclusive: 1.98 µM | –
4 | O=c1[nH]cnc2c1ncn2[C@H]1CC[C@@H](CO)O1 | inconclusive: 0.0341 µM | –
5 | CCCCCCCCN(C)CCCCCCCC | – | inactive
6 | Oc1ccc2ccccc2c1N=Nc1ccccc1 | – | inactive
7 | O=C(c1ccc(O)cc1O)c1ccc(O)cc1O | inconclusive: 13.5 µM | –
8 | COc1ccc2cc(S(=O)(=O)N[C@H](CC(=O)N[C@H](Cc3ccc(CN4[C@H](C)CCC[C@@H]4C)cc3)C(=O)N(C)C(C)C)c3ccc4c(c3)OCO4)ccc2c1 | active: 23 µM | –
9 | Clc1cc(Cl)c2c(c1)N=C1CCCCCN1C2 | – | inactive
10 | CC[C@H](NC(=O)c1cc(F)ccc1NS(=O)(=O)c1cccc2cccnc12)c1ccccc1 | inconclusive: 1.89 µM | –
11 | Cc1ccc(C(C)(C)C)c(O)c1 | active: 15 µM | –
12 | O=Cc1ccccc1C=O | inconclusive: 9.92 µM | –
13 | C=Cc1ccc(O)c(OC)c1 | active: 81 µM | –
14 | CCCCOC(=O)C(C)Oc1ccc(Oc2ccc(C(F)(F)F)cn2)cc1 (stereo not given) | – | inactive
15 | CCC(C)(C)C(=O)O[C@H]1C[C@@H](C)C=C2C=C[C@H](C)[C@H](CC[C@@H]3C[C@@H](O)CC(=O)O3)[C@H]21 | inconclusive: 0.114 µM | –
16 | Nc1nc(=S)c2[nH]cnc2[nH]1 | active: 2.97 µM | –
17 | CN(Cc1cnc2nc(N)nc(N)c2n1)c1ccc(C(=O)N[C@@H](CCC(=O)O)C(=O)O)cc1 | active: 0.0863 µM | –
18 | CCOC(=O)C(C)Oc1ccc(Oc2cnc3cc(Cl)ccc3n2)cc1 (stereo not given) | inconclusive: 3.99 µM | –
19 | CC(C)OC(=O)C(C)(C)Oc1ccc(C(=O)c2ccc(Cl)cc2)cc1 | inconclusive: 1.49 µM | –
20 | O=c1c(O)c(-c2ccc(O)c(O)c2)oc2cc(O)cc(O)c12 | inconclusive: 5 µM | –

Row | Compound | AC50 | outcome
21 | Cc1ccc(-c2cc(C(F)(F)F)nn2-c2ccc(S(N)(=O)=O)cc2)cc1 | inconclusive: 5 µM | –
22 | O=C(O)CN(CC(=O)O)CC(=O)O | active: 13 µM | –
23 | CCCCCCCCCCCCCCCCO | inconclusive: 0.0037 µM | –
24 | CCCCOC(=O)c1ccc(O)cc1 | – | inactive
25 | COC(=O)c1ccccc1C(=O)O | – | inactive
26 | O=P(OC(CCl)CCl)(OC(CCl)CCl)OC(CCl)CCl | – | inactive
27 | C[C@@H]1C[C@H]2[C@@H]3CCC4=CC(=O)C=C[C@]4(C)[C@@]3(F)[C@@H](O)C[C@]2(C)[C@@]1(O)C(=O)COP(=O)(O)O | – | inactive
28 | COc1cccc(-c2ccc(/C=C\CN3CCCCCC3)cc2Cl)c1 | active: 3.97 µM | –
29 | NC(=Nc1ccccc1)Nc1ccccc1 | inconclusive: 5 µM | –
30 | CCCc1cc(=O)[nH]c(=S)[nH]1 | – | inactive
31 | O=C(O)Cc1cc(I)c(Oc2cc(I)c(O)c(I)c2)c(I)c1 | – | inactive
32 | N#C[C@@H]1CC(F)(F)CN1C(=O)CNC1CC2CCC(C1)N2c1ncccn1 (stereo not given in full) | inconclusive: 10 µM | –
33 | COc1ccc(S(=O)(=O)N2C(=O)[C@@](c3ccccc3OC)(N3C[C@H](O)C[C@H]3C(=O)N(C)C)c3cc(Cl)ccc32)c(OC)c1 | – | inactive
34 | CC(CCC(=O)O)(c1ccc(O)cc1)c1ccc(O)cc1 | – | inactive
35 | CCC(C)N(C)C(=O)c1cc2ccccc2c(-c2ccccc2Cl)n1 (stereo not given) | inconclusive: 9.21 µM | –
36 | CN1CCN(c2ccccc2/C=C2\SCCN(c3ccc(Cl)c(Cl)c3)C2=O)CC1 | active: 7.71 µM | –
37 | O=C1CCCCCCCCCCC(=O)OCCO1 | – | inactive
38 | CCCCc1oc2ccccc2c1C(=O)c1cc(I)c(OCCN(CC)CC)c(I)c1 | active: 5 µM | –
39 | CCCCOCCOCCOCCO | inconclusive: 50 µM | –
40 | CC(C)C(=O)Nc1ccc([N+](=O)[O-])c(C(F)(F)F)c1 | active: 50 µM | –

Exported as a markdown table: two of the compounds above.

| Row | Compound | AC50 | outcome |
| --- | --- | --- | --- |
| 21 | Cc1ccc(-c2cc(C(F)(F)F)nn2-c2ccc(S(N)(=O)=O)cc2)cc1 | inconclusive: 5 µM | – |
| 26 | O=P(OC(CCl)CCl)(OC(CCl)CCl)OC(CCl)CCl | – | inactive |
